Reference: PMC11580471
Results are given in words; binding and its absence hold for the method and conditions named. Binding seen in cells or lysates may run through a third protein. These calls come from enrichment with a bait or labelling near it, and not all partners need be listed. Sequences can lack the tags named with a protein.

Chains of the proteins cited; added tags and fusions are not shown. Lines headed by an entry give the natural chain unless they say otherwise; changes in a name come on top. Residues count along the entry.
UniProt P07339: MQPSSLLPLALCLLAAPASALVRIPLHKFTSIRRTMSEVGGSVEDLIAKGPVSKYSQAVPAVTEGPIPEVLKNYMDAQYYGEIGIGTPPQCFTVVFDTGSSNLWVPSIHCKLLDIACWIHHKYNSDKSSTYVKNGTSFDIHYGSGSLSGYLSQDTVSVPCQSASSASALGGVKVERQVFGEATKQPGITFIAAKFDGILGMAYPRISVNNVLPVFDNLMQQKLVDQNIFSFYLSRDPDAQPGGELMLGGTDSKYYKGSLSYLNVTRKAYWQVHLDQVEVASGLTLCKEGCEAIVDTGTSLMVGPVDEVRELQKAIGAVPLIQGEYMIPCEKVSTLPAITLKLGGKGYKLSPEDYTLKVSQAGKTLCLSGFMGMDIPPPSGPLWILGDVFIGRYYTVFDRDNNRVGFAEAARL
UniProt P55036: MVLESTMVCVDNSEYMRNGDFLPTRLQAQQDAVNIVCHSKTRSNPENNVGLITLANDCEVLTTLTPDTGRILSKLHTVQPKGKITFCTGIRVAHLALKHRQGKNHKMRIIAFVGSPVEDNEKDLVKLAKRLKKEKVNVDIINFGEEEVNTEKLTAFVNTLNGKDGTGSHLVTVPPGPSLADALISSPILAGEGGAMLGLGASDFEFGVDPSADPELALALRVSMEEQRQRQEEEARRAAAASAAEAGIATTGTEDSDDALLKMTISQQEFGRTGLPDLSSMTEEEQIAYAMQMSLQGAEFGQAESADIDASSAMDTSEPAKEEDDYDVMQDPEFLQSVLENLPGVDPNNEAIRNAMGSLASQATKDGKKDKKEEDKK
UniProt P11021, residues 19-654: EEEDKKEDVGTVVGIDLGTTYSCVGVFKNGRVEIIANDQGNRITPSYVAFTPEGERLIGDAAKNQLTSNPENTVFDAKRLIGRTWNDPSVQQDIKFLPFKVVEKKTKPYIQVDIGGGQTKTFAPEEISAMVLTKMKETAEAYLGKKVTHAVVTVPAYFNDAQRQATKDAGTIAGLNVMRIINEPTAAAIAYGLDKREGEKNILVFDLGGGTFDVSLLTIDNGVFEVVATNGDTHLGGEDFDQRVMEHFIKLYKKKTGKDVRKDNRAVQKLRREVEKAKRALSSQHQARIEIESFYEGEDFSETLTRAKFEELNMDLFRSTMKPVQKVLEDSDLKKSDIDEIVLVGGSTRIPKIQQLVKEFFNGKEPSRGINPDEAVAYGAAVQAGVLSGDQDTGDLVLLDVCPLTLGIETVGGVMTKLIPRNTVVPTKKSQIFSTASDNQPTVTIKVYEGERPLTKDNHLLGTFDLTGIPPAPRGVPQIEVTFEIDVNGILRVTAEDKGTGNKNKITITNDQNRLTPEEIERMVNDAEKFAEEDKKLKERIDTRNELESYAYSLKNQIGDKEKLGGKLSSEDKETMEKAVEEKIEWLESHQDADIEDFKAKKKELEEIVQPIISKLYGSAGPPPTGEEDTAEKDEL
UniProt P02788, residues 20-710: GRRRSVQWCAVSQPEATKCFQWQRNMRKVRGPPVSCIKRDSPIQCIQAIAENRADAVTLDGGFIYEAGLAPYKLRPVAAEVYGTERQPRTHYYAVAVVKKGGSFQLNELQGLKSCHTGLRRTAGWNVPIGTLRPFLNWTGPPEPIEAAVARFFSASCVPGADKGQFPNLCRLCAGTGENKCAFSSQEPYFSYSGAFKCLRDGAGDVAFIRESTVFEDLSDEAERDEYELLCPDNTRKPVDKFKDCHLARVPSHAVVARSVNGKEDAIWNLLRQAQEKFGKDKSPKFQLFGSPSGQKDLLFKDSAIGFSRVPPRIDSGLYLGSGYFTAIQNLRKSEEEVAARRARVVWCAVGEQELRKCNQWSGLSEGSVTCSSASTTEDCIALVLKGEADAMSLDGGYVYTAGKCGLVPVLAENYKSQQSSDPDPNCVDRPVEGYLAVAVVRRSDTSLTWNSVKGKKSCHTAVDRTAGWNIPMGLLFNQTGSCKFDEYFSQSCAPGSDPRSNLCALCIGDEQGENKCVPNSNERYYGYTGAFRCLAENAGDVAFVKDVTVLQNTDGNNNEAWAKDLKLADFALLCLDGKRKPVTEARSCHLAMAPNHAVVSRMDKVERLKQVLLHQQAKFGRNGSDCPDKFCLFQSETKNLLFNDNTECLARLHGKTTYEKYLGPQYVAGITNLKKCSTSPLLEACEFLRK
UniProt P08670: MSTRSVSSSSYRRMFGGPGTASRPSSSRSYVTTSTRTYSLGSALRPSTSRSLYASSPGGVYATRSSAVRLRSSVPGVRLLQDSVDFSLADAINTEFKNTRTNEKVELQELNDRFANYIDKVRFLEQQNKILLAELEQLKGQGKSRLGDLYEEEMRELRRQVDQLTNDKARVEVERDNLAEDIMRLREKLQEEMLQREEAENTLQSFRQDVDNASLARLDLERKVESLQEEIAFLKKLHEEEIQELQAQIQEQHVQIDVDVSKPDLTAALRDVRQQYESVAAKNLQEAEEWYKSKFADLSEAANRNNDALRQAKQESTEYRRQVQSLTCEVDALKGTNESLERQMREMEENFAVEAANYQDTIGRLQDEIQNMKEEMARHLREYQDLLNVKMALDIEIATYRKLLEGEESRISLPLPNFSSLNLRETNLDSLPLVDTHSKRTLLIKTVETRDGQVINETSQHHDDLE

T1: F-box and leucine-rich repeat protein 16 (Flag-FBXL16) (human) (UniProt Q8N461)
T1 sequence: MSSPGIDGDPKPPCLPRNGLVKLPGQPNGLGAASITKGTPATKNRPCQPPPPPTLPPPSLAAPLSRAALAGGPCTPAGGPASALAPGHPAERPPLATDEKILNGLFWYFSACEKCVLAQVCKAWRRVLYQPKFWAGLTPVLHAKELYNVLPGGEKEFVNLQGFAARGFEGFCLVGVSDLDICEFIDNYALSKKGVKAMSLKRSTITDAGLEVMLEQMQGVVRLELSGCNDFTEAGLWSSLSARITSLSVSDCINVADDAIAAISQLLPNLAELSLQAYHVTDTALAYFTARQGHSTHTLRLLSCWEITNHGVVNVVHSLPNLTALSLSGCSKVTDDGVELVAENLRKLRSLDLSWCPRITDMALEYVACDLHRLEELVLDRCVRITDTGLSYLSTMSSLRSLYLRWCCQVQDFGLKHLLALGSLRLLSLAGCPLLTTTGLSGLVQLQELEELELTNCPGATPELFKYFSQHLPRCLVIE


Molecular target: T1, F-box and leucine-rich repeat protein 16 (Flag-FBXL16) (human)
Assay: affinity purification with mass spectrometry; 0 to 2 µg Flag-FBXL16 plasmid transfected into HEK293 cells; precipitated with Flag magnetic beads, eluted with glycine (0.1 M, pH 2.8), neutralised with 0.5 M Tris-HCl; trypsin digestion and mass spectrometry

Row | Molecule | binding
1 | CTSD (from UniProt P07339) | binds
2 | PSMD4 (from UniProt P55036 1-377) | binds
3 | HSPA5 (from UniProt P11021 19-654) | binds
4 | LTF (from UniProt P02788 20-710) | binds
5 | VIM (from UniProt P08670 1-466) | binds
6 | USP17L18 (protein, UniProt D6R9N7 1-530) MEDDSLYLGGEWQFNHFSKLTSSRPDAAFAEIQRTSLPEKSPLSCETRVDLCDDLAPVARQLAPREKLPLSSRRPAAVGAGLQNMGNTCYVNASLQCLTYTPPLANYMLSREHSQTCHRHKGCMLCTMQAHITRALHNPGHVIQPSQALAAGFHRGKQEDAHEFLMFTVDAMKKACLPGHKQVDHHSKDTTLIHQIFGGYWRSQIKCLHCHGISDTFDPYLDIALDIQAAQSVQQALEQLVKPEELNGENAYHCGVCLQRAPASKTLTLHTSAKVLILVLKRFSDVTGNKIAKNVQYPECLDMQPYMSQTNTGPLVYVLYAVLVHAGWSCHNGHYFSYVKAQEGQWYKMDDAEVTASSITSVLSQQAYVLFYIQKSEWERHSESVSRGREPRALGAEDTDRRAKQGELKRDHPCLQAPELDEHLVERATQESTLDHWKFLQEQNKTKPEFNVRKVEGTLPPDVLVIHQSKYKCGMKNHHPEQQSSLLNLSSTTPTHQESMNTGTLASLRGRARRSKGKNKHSKRALLVCQ | binds
7 | USP17L24 (protein, UniProt Q0WX57 1-530) MEDDSLYLRGEWQFNHFSKLTSSRPDAAFAEIQRTSLPEKSPLSCETRVDLCDDLAPVARQLAPREKLPLSSRRPAAVGAGLQNMGNTCYVNASLQCLTYTPPLANYMLSREHSQTCHRHKGCMLCTMQAHITRALHNPGHVIQPSQALAAGFHRGKQEDAHEFLMFTVDAMKKACLPGHKQVDHHSKDTTLIHQIFGGYWRSQIKCLHCHGISDTFDPYLDIALDIQAAQSVQQALEQLVKPEELNGENAYHCGVCLQRAPASKTLTLHTSAKVLILVLKRFSDVTGNKIAKNVQYPECLDMQPYMSQPNTGPLVYVLYAVLVHAGWSCHNGHYFSYVKAQEGQWYKMDDAEVTASSITSVLSQQAYVLFYIQKSEWERHSESVSRGREPRALGAEDTDRRATQGELKRDHPCLQAPELDEHLVERATQESTLDHWKFLQEQNKTKPEFNVRKVEGTLPPDVLVIHQSKYKCGMKNHHPEQQSSLLNLSSSTPTHQESMNTGTLASLRGRARRSKGKNKHSKRALLVCQ | binds
8 | USP17L19 (protein, UniProt D6RCP7 1-530) MEEDSLYLGGEWQFNHFSKLTSSRPDAAFAEIQRTSLPEKSPLSCETRVDLCDDLAPVARQLAPREKLPLSSRRPAAVGAGLQNMGNTCYVNASLQCLTYTPPLANYMLSREHSQTCHRHKGCMLCTMQAHITRALHNPGHVIQPSQALAAGFHRGKQEDAHEFLMFTVDAMKKACLPGHKQVDHHSKDTTLIHQIFGGYWRSQIKCLHCHGISDTFDPYLDIALDIQAAQSVQQALEQLVKPEELNGENAYHCGVCLQRAPASKTLTLHTSAKVLILVLKRFSDVTGNKIAKNVQYPECLDMQPYMSQTNTGPLVYVLYAVLVHAGWSCHNGHYFSYVKAQEGQWYKMDDAEVTASSITSVLSQQAYVLFYIQKSEWERHSESVSRGREPRALGAEDTDRRATQGELKRDHPCLQAPELDEHLVERATQESTLDHWKFLQEQNKTKPEFNVRKVEGTLPPDVLVIHQSKYKCGMKNHHPEQQSSLLKLSSTTPTHQESMNTGTLASLRGRARRSKGKNKHSKRALLVCQ | binds
9 | USP17L5 (protein, UniProt A8MUK1 1-530) MEDDSLYLRGEWQFNHFSKLTSSRPDAAFAEIQRTSLPEKSPLSCETRVDLCDDLAPVARQLAPREKLPLSSRRPAAVGAGLQNMGNTCYVNASLQCLTYTPPLANYMLSREHSQTCHRHKGCMLCTMQAHITRALHNPGHVIQPSQALAAGFHRGKQEDAHEFLMFTVDAMKKACLPGHKQVDHHSKDTTLIHQIFGGYWRSQIKCLHCHGISDTFDPYLDIALDIQAAQSVQQALEQLAKPEELNGENAYHCGVCLQRAPASKTLTLHTSAKVLILVLKRFSDVTGNKIAKNVQYPECLDMQPYMSQPNTGPLVYVLYAVLVHAGWSCHNGHYFSYVKAQEGQWYKMDDAEVTASSITSVLSQQAYVLFYIQKSEWERHSESVSRGREPRALGAEDTDRRATQGELKRDHPCLQAPELDEHLVERATQESTLDHWKFLQEQNKTKPEFNVRKVEGTLPPDVLVIHQSKYKCGMKNHHPEQQSSLLNLSSSTPTHQESMNTGTLASLRGRARRSKGKNKHSKRALLVCQ | binds
10 | USP17L20 (protein, UniProt D6RJB6 1-530) MEDDSLYLGGEWQFNHFSKLTSSRPDAAFAEIQRTSLPEKSPLSCETRVDLCDDLAPVARQLAPREKLPLSSRRPAAVGAGLQNMGNTCYVNASLQCLTYTPPLANYMLSREHSQTCHRHKGCMLCTMQAHITRALHNPGHVIQPSQALAAGFHRGKQEDAHEFLMFTVDAMKKACLPGHKQVDHHSKDTTLIHQIFGGYWRSQIKCLHCHGISDTFDPYLDIALDIQAAQSVQQALEQLVKPEELNGENAYHCGVCLQRAPASKTLTLHTSAKVLILVLKRFSDVTGNKIAKNVQYPECLDMQPYMSQPNTGPLVYVLYAVLVHAGWSCHNGHYFSYVKAQEGQWYKMDDAEVTASSITSVLSQQAYVLFYIQKSEWERHSESVSRGREPRALGAEDTDRRATQGELKRDHPCLQAPELDEHLVERATQESTLDHWKFLQEQNKTKPEFNVRKVEGTLPPDVLVIHQSKYKCGMKNHHPEQQSSLLNLSSTTPTHQESMNTGTLASLRGRARRSKGKNKHSKRALLVCQ | binds
11 | USP17L15 (protein, UniProt C9J2P7 1-553) MEDDSLYLGGEWQFNHFSKLTSSRPDAAFAEIQRTSLPEKSPLSCETRVDLCDDLAPVARQLAPREKLPLSSRRPAAVGAGLQNMGNTCYVNASLQCLTYTPPLANYMLSREHSQTCHRHKGCMLCTMQAHITRALHNPGHVIQPSQALAAGFHRGKQEDAHEFLMFTVDAMKKACLPGHKQVDHHSKDTTLIHQIFGGYWRSQIKCLHCHGISDTFDPYLDIALDIQAAQSVQQALEQLVKPEELNGENAYHCGVCLQRAPASKTLTLHTSAKVLILVLKRFSDVTGNKIDKNVQYPECLDMKLYMSQTNSGPLVYVLYAVLVHAGWSCHNGHYFSYVKAQEGQWYKMDDAEVTASSITSVLSQQAYVLFYIQKSEWERHSESVSRGREPRALGAEDTDRRATQGELKRDHPCLQAPELDEHLVERATQESTLDHWKFLQEQNKTKPEFNVRKVEGTLPPDVLVIHQSKYKCGMKNHHPEQQSSLLNLSSTTPTHQESMNTGTLASLRGRARRSKGKNKHSKRALLVCQWSQWKYRPTRRGAHTHAHTQTHT | binds
12 | USP17L3 (protein, UniProt A6NCW0 1-530) MGDDSLYLGGEWQFNHFSKLTSSRPDAAFAEIQRTSLPEKSPLSSETRVDLCDDLAPVARQLAPREKLPLSSRRPAAVGAGLQNMGNTCYENASLQCLTYTLPLANYMLSREHSQTCQRPKCCMLCTMQAHITWALHSPGHVIQPSQALASGFHRGKQEDVHEFLMFTVDAMKKACLPGHKQVDHHSKDTTLIHQIFGGCWRSQIKCLHCHGISDTFDPYLDIALDIQAAQSVKQALEQLVKPEELNGENAYHCGLCLQRAPASNTLTLHTSAKVLILVLKRFSDVAGNKLAKNVQYPECLDMQPYMSQQNTGPLVYVLYAVLVHAGWSCHDGHYFSYVKAQEGQWYKMDDAEVTVCSITSVLSQQAYVLFYIQKSEWERHSESVSRGREPRALGAEDTDRRAKQGELKRDHPCLQAPELDEHLVERATQESTLDHWKFLQEQNKTKPEFNVGKVEGTLPPNALVIHQSKYKCGMKNHHPEQQSSLLNLSSTTRTDQESMNTGTLASLQGRTRRAKGKNKHSKRALLVCQ | binds
13 | USP17L1 (protein, UniProt Q7RTZ2 1-530) MGDDSLYLGGEWQFNHFSKLTSSRPDAAFAEIQRTSLPEKSPLSSETRVDLCDDLAPVARQLAPREKLPLSSRRPAAVGAGLQNMGNTCYENASLQCLTYTLPLANYMLSREHSQTCQRPKCCMLCTMQAHITWALHSPGHVIQPSQALAAGFHRGKQEDVHEFLMFTVDAMKKACLPGHKQVDHHCKDTTLIHQIFGGCWRSQIKCLHCHGISDTFDPYLDIALDIQAAQSVKQALEQLVKPEELNGENAYHCGLCLQRAPASNTLTLHTSAKVLILVLKRFSDVAGNKLAKNVQYPECLDMQPYMSQQNTGPLVYVLYAVLVHAGWSCHDGHYFSYVKAQEVQWYKMDDAEVTVCSIISVLSQQAYVLFYIQKSEWERHSESVSRGREPRALGAEDTDRRAKQGELKRDHPCLQAPELDEHLVERATQESTLDHWKFLQEQNKTKPEFNVGKVEGTLPPNALVIHQSKYKCGMKNHHPEQQSSLLNLSSTTRTDQESMNTGTLASLQGRTRRAKGKNKHSKRALLVCQ | binds
14 | USP17L2 (protein, UniProt Q6R6M4 1-530) MEDDSLYLGGEWQFNHFSKLTSSRPDAAFAEIQRTSLPEKSPLSSEARVDLCDDLAPVARQLAPRKKLPLSSRRPAAVGAGLQNMGNTCYENASLQCLTYTPPLANYMLSREHSQTCQRPKCCMLCTMQAHITWALHSPGHVIQPSQALAAGFHRGKQEDAHEFLMFTVDAMKKACLPGHKQVDHHSKDTTLIHQIFGGCWRSQIKCLHCHGISDTFDPYLDIALDIQAAQSVKQALEQLVKPEELNGENAYHCGLCLQRAPASKTLTLHTSAKVLILVLKRFSDVTGNKLAKNVQYPECLDMQPYMSQQNTGPLVYVLYAVLVHAGWSCHDGHYFSYVKAQEGQWYKMDDAKVTACSITSVLSQQAYVLFYIQKSEWERHSESVSRGREPRALGAEDTDRRATQGELKRDHPCLQAPELDERLVERATQESTLDHWKFPQEQNKTKPEFNVRKVEGTLPPNVLVIHQSKYKCGMKNHHPEQQSSLLNLSSTTRTDQESVNTGTLASLQGRTRRSKGKNKHSKRALLVCQ | binds
15 | PRDX2 (protein, UniProt P32119 1-198) MASGNARIGKPAPDFKATAVVDGAFKEVKLSDYKGKYVVLFFYPLDFTFVCPTEIIAFSNRAEDFRKLGCEVLGVSVDSQFTHLAWINTPRKEGGLGPLNIPLLADVTRRLSEDYGVLKTDEGIAYRGLFIIDGKGVLRQITVNDLPVGRSVDEALRLVQAFQYTDEHGEVCPAGWKPGSDTIKPNVDDSKEYFSKHN | binds
